Paper PMC8394137

By UniProt entry, the sequences of proteins in these tests, tags left out.
UniProt O43736: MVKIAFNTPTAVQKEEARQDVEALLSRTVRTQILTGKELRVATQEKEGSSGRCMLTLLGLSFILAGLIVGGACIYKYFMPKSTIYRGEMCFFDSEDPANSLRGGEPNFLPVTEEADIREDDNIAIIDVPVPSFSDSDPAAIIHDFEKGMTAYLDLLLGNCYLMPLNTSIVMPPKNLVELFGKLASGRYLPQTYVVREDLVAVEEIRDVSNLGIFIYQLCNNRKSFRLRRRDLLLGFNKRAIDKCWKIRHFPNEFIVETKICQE

Target: HA-ITM2A (UniProt O43736)
Assay: affinity purification with mass spectrometry; HEK293 transfected with HA-ITM2A or empty pcDNA3.1, immunoprecipitated as for co-IP, trypsin digestion, mass spectrometry; proteins of the empty-vector control subtracted

binding | Binder
binds | NUP93 (protein, UniProt Q8N1F7 1-819) MDTEGFGELLQQAEQLAAETEGISELPHVERNLQEIQQAGERLRSRTLTRTSQETADVKASVLLGSRGLDISHISQRLESLSAATTFEPLEPVKDTDIQGFLKNEKDNALLSAIEESRKRTFGMAEEYHRESMLVEWEQVKQRILHTLLASGEDALDFTQESEPSYISDVGPPGRSSLDNIEMAYARQIYIYNEKIVNGHLQPNLVDLCASVAELDDKSISDMWTMVKQMTDVLLTPATDALKNRSSVEVRMEFVRQALAYLEQSYKNYTLVTVFGNLHQAQLGGVPGTYQLVRSFLNIKLPAPLPGLQDGEVEGHPVWALIYYCMRCGDLLAASQVVNRAQHQLGEFKTWFQEYMNSKDRRLSPATENKLRLHYRRALRNNTDPYKRAVYCIIGRCDVTDNQSEVADKTEDYLWLKLNQVCFDDDGTSSPQDRLTLSQFQKQLLEDYGESHFTVNQQPFLYFQVLFLTAQFEAAVAFLFRMERLRCHAVHVALVLFELKLLLKSSGQSAQLLSHEPGDPPCLRRLNFVRLLMLYTRKFESTDPREALQYFYFLRDEKDSQGENMFLRCVSELVIESREFDMILGKLENDGSRKPGVIDKFTSDTKPIINKVASVAENKGLFEEAAKLYDLAKNADKVLELMNKLLSPVVPQISAPQSNKERLKNMALSIAERYRAQGISANKFVDSTFYLLLDLITFFDEYHSGHIDRAFDIIERLKLVPLNQESVEERVAAFRNFSDEIRHNLSEVLLATMNILFTQFKRLKGTSPSSSSRPQRVIEDRDSQLRSQARTLITFAGMIPYRTSGDTNARLVQMEVLMN
binds | SLC25A3 (protein, UniProt Q00325 50-362) AVEEQYSCDYGSGRFFILCGLGGIISCGTTHTALVPLDLVKCRMQVDPQKYKGIFNGFSVTLKEDGVRGLAKGWAPTFLGYSMQGLCKFGFYEVFKVLYSNMLGEENTYLWRTSLYLAASASAEFFADIALAPMEAAKVRIQTQPGYANTLRDAAPKMYKEEGLKAFYKGVAPLWMRQIPYTMMKFACFERTVEALYKFVVPKPRSECSKPEQLVVTFVAGYIAGVFCAIVSHPADSVVSVLNKEKGSSASLVLKRLGFKGVWKGLFARIIMIGTLTALQWFIYDSVKVYFRLPRPPPPEMPESLKKKLGLTQ

The remaining lines, values behind:

Binder | binding
TRIP13 (protein, UniProt Q15645 1-432) MDEAVGDLKQALPCVAESPTVHVEVHQRGSSTAKKEDINLSVRKLLNRHNIVFGDYTWTEFDEPFLTRNVQSVSIIDTELKVKDSQPIDLSACTVALHIFQLNEDGPSSENLEEETENIIAANHWVLPAAEFHGLWDSLVYDVEVKSHLLDYVMTTLLFSDKNVNSNLITWNRVVLLHGPPGTGKTSLCKALAQKLTIRLSSRYRYGQLIEINSHSLFSKWFSESGKLVTKMFQKIQDLIDDKDALVFVLIDEVESLTAARNACRAGTEPSDAIRVVNAVLTQIDQIKRHSNVVILTTSNITEKIDVAFVDRADIKQYIGPPSAAAIFKIYLSCLEELMKCQIIYPRQQLLTLRELEMIGFIENNVSKLSLLLNDISRKSEGLSGRVLRKLPFLAHALYVQAPTVTIEGFLQALSLAVDKQFEERKKLAAYI | binds
STT3B (protein, UniProt Q8TCJ2 1-826) MAEPSAPESKHKSSLNSSPWSGLMALGNSRHGHHGPGAQCAHKAAGGAAPPKPAPAGLSGGLSQPAGWQSLLSFTILFLAWLAGFSSRLFAVIRFESIIHEFDPWFNYRSTHHLASHGFYEFLNWFDERAWYPLGRIVGGTVYPGLMITAGLIHWILNTLNITVHIRDVCVFLAPTFSGLTSISTFLLTRELWNQGAGLLAACFIAIVPGYISRSVAGSFDNEGIAIFALQFTYYLWVKSVKTGSVFWTMCCCLSYFYMVSAWGGYVFIINLIPLHVFVLLLMQRYSKRVYIAYSTFYIVGLILSMQIPFVGFQPIRTSEHMAAAGVFALLQAYAFLQYLRDRLTKQEFQTLFFLGVSLAAGAVFLSVIYLTYTGYIAPWSGRFYSLWDTGYAKIHIPIIASVSEHQPTTWVSFFFDLHILVCTFPAGLWFCIKNINDERVFVALYAISAVYFAGVMVRLMLTLTPVVCMLSAIAFSNVFEHYLGDDMKRENPPVEDSSDEDDKRNQGNLYDKAGKVRKHATEQEKTEEGLGPNIKSIVTMLMLMLLMMFAVHCTWVTSNAYSSPSVVLASYNHDGTRNILDDFREAYFWLRQNTDEHARVMSWWDYGYQIAGMANRTTLVDNNTWNNSHIALVGKAMSSNETAAYKIMRTLDVDYVLVIFGGVIGYSGDDINKFLWMVRIAEGEHPKDIRESDYFTPQGEFRVDKAGSPTLLNCLMYKMSYYRFGEMQLDFRTPPGFDRTRNAEIGNKDIKFKHLEEAFTSEHWLVRIYKVKAPDNRETLDHKPRVTNIFPKQKYLSKKTTKRKRGYIKNKLVFKKGKKISKKTV | binds
NUFIP2 (protein, UniProt Q7Z417 1-695) MEEKPGQPQPQHHHSHHHPHHHPQQQQQQPHHHHHYYFYNHSHNHHHHHHHQQPHQYLQHGAEGSPKAQPKPLKHEQKHTLQQHQETPKKKTGYGELNGNAGEREISLKNLSSDEATNPISRVLNGNQQVVDTSLKQTVKANTFGKAGIKTKNFIQKNSMDKKNGKSYENKSGENQSVDKSDTIPIPNGVVTNNSGYITNGYMGKGADNDGSGSESGYTTPKKRKARRNSAKGCENLNIVQDKIMQQETSVPTLKQGLETFKPDYSEQKGNRVDGSKPIWKYETGPGGTSRGKPAVGDMLRKSSDSKPGVSSKKFDDRPKGKHASAVASKEDSWTLFKPPPVFPVDNSSAKIVPKISYASKVKENLNKTIQNSSVSPTSSSSSSSSTGETQTQSSSRLSQVPMSALKSVTSANFSNGPVLAGTDGNVYPPGGQPLLTTAANTLTPISSGTDSVLQDMSLTSAAVEQIKTSLFIYPSNMQTMLLSTAQVDLPSQTDQQNLGDIFQNQWGLSFINEPSAGPETVTGKSSEHKVMEVTFQGEYPATLVSQGAEIIPSGTEHPVFPKAYELEKRTSPQVLGSILKSGTTSESGALSLEPSHIGDLQKADTSSQGALVFLSKDYEIESQNPLASPTNTLLGSAKEQRYQRGLERNDSWGSFDLRAAIVYHTKEMESIWNLQKQDPKRIITYNEAMDSPDQ | binds
MARS (protein, UniProt P56192 1-900) MRLFVSDGVPGCLPVLAAAGRARGRAEVLISTVGPEDCVVPFLTRPKVPVLQLDSGNYLFSTSAICRYFFLLSGWEQDDLTNQWLEWEATELQPALSAALYYLVVQGKKGEDVLGSVRRALTHIDHSLSRQNCPFLAGETESLADIVLWGALYPLLQDPAYLPEELSALHSWFQTLSTQEPCQRAAETVLKQQGVLALRPYLQKQPQPSPAEGRAVTNEPEEEELATLSEEEIAMAVTAWEKGLESLPPLRPQQNPVLPVAGERNVLITSALPYVNNVPHLGNIIGCVLSADVFARYSRLRQWNTLYLCGTDEYGTATETKALEEGLTPQEICDKYHIIHADIYRWFNISFDIFGRTTTPQQTKITQDIFQQLLKRGFVLQDTVEQLRCEHCARFLADRFVEGVCPFCGYEEARGDQCDKCGKLINAVELKKPQCKVCRSCPVVQSSQHLFLDLPKLEKRLEEWLGRTLPGSDWTPNAQFITRSWLRDGLKPRCITRDLKWGTPVPLEGFEDKVFYVWFDATIGYLSITANYTDQWERWWKNPEQVDLYQFMAKDNVPFHSLVFPCSALGAEDNYTLVSHLIATEYLNYEDGKFSKSRGVGVFGDMAQDTGIPADIWRFYLLYIRPEGQDSAFSWTDLLLKNNSELLNNLGNFINRAGMFVSKFFGGYVPEMVLTPDDQRLLAHVTLELQHYHQLLEKVRIRDALRSILTISRHGNQYIQVNEPWKRIKGSEADRQRAGTVTGLAVNIAALLSVMLQPYMPTVSATIQAQLQLPPPACSILLTNFLCTLPAGHQIGTVSPLFQKLENDQIESLRQRFGGGQAKTSPKPAVVETVTTAKPQQIQALMDEVTKQGNIVRELKAQKADKNEVAAEVAKLLDLKKQLAVAEGKPPEAPKGKKKK | binds

These are yes or no findings as the source states them, for the method shown. In cells and extracts the contact can be indirect. A yes stands for co-enrichment or nearness to the bait. Other partners may have been found.
